# Publication PMC7862700
# Sequences of proteins named here, by UniProt entry; tags and fusion partners are left off. A change or cut given only in a name is not applied to a line headed by its entry.
# UniProt O43186: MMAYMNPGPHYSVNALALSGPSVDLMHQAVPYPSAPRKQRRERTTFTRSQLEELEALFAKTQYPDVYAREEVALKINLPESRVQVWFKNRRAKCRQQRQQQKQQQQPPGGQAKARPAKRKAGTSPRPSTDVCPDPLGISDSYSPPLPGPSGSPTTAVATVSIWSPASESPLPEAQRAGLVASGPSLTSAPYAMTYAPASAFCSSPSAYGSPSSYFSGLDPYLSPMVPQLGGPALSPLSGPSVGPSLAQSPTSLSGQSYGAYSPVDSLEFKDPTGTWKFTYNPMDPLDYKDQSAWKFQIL
# The entries are a selection whose mix differs from that of the whole data set. At the low end of the ranking the order means little.
# Columns and labels:
# CRX = CRX (UniProt O43186); test: DAPPL (digital affinity profiling via proximity ligation, sequencing); conditions: 10 mM Tris-HCl pH 7.5, 50 mM NaCl, 1 mM DTT, 4% glycerol, room temperature, 30 min; GST-TFs on glutathione beads, 16-mer random dsDNA library, 0.1% …; high values mean tight binding; double strand, one strand shown; scale: fold enrichment (6-mer frequency, TF over GST control)
# ELF5 = target: T1, ELF5 (UniProt Q9UKW6-2); test: as above; conditions: 10 mM Tris-HCl pH 7.5, 50 mM NaCl, 1 mM DTT, 4% glycerol, room temperature, 30 min; GST-TFs on glutathione beads, 16-mer random dsDNA library, 0.1% …; high values mean tight binding; double strand, one strand shown; scale: fold enrichment (6-mer frequency, TF over GST control)
# T1 sequence: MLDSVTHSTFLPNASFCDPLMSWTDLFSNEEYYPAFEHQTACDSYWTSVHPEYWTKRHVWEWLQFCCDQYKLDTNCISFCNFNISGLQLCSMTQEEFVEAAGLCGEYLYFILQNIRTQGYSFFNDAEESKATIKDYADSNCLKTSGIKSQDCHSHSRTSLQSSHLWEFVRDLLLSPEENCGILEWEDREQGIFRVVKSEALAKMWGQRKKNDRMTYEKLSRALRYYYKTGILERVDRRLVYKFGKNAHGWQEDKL
Sequence,binding signal (CRX),binding signal (ELF5)
TGGTAC,0.88,–
CTATAT,1.3,–
TCTTAC,1.7,–
TGGCAA,1.07,–
CTTAGA,1.69,–
CGCCGA,0.985,–
CTCGAT,1.48,–
GAAGCA,0.826,–
AGGAAA,0.822,–
GCTTAT,2.89,–
CGATTC,1.09,–
TGTAGC,0.969,–
CTATCT,1.4,–
AATCAA,1.32,–
GATCCT,1.66,–
AATGTC,1.04,–
AACCAT,1.05,–
CGATAC,0.98,–
ACCTCG,0.919,–
ACATTG,0.879,–
TGTATC,1.15,–
TTTATG,1.74,–
CCCTAC,1.19,–
AATGCT,1.26,–

Sequence,binding signal (CRX),binding signal (ELF5)
GCCTTC,1.2,–
GACATC,0.745,–
GCAAAA,0.974,–
GTATGC,0.826,–
TCGCGC,0.949,–
TTATTT,2.43,–
GATCTT,1.71,–
AACATA,1.3,–
TCGCTT,1.15,–
ATACCG,0.875,–
CATCCG,0.911,–
ACCGGA,0.861,–
CATCCC,1.05,–
TAAACA,1.53,–
ACTAAC,1.18,–
TCCTCT,1.79,2.15
CCTCAC,0.892,1.22
AAATTG,1.05,1.22
AAAGAC,1.13,–
ACCTAC,1.02,1.29
TCTCTG,1.49,–
ACTCCC,1.13,1.38
CCCATG,0.971,0.973
CGATCG,0.941,0.913

Sequence,binding signal (CRX),binding signal (ELF5)
TACACG,1.1,1.13
AAACCA,1.14,1.13
CATCGA,1.05,1.05
TCGCAC,0.886,–
TCTAGT,1.37,1.04
TACACC,1.06,–
ATTTAC,1.75,–
CACACT,0.907,1.18
ATTGAC,1.11,1.19
CACGAA,0.988,1.02
AAAATC,1.62,1.15
TTGCCG,0.895,1.07
TAATGC,2.32,1.17
TTTCTC,1.67,1.56
TGAACC,0.999,1.09
TGCTAC,0.967,1.17
TTGTGG,1.46,1.32
CAAGGT,0.841,0.966
AGCAGC,0.944,0.992
AATGGC,1.26,–
CTTACC,1.58,1.39
TGTAAA,1.2,1.1
CAATCA,0.996,1.1
ATCTCC,2.01,–

Sequence,binding signal (CRX),binding signal (ELF5)
ACCGTC,0.903,1.08
CAATTG,0.97,–
ACATAT,1.12,–
TGTCTC,0.916,1.26
CCGTAC,0.939,1.46
ACGAAC,0.941,–
CTTCGG,1.52,–
CTAAGT,1.8,1.17
TCTTTG,1.27,1.09
ACCCGC,1.1,1.25
CCACGC,0.903,1.11
TACTCG,1.38,1.25
TGGACC,0.834,0.996
ATTCTG,1.5,1.21
GCTCAG,1.41,1.01
TTTGGT,1.51,1.4
GACCTA,1.07,1.15
CATCTG,1.15,1.23
TATCGT,1.28,1.08
TGTCCA,0.817,1.05
ACTAGC,1.11,1.13
TCCAAT,1.27,1.15
TCACAG,0.993,0.993
TTAGAA,2.08,0.975

Sequence,binding signal (CRX),binding signal (ELF5)
GTTTGG,0.801,1.1
CGCGAC,0.836,0.999
ATATGT,0.941,1.13
TATCCT,2.28,2.65
CCATTT,1.01,1.31
CGACTC,1.31,1.33
GGTATA,1.02,1.09
CCGATG,0.905,0.949
TTTGAG,1.23,1.03
TACCCT,1.45,1.26
CTCATT,1.45,1.5
AGATCC,1.11,1.22
CAATAT,1.15,1.2
TTATTG,2.35,1.2
CACCAT,0.831,1.1
TGGTGT,0.99,1.14
ACGATC,1.14,1.01
TACCGC,1.03,1.08
ATACCC,1.2,1.18
GCTTTC,1.33,1.23
TGCTGT,0.84,0.927
CTGCCC,0.902,1.19
TGATGG,1.1,1.26
ATCTAA,1.83,1.17

# As entered above.
# TGGTGT – binding signal (ELF5): 1.14
# CAATAT – binding signal (CRX): 1.15
# GTTTGG – binding signal (CRX): 0.801
# ATACCC – binding signal (ELF5): 1.18
# CACCAT – binding signal (ELF5): 1.1
